Assay results

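Genome-wide siRNA knockdown in TC32 Ewing sarcoma cells, comparing luciferase light from an NR0B1-promoter reporter with a CMV-promoter reporter 48 hours after transfection. Each siRNA was applied at 20 nM. A z-score of the log NR0B1-over-CMV signal, less the median of siRNAs with the same seed; more negative means a stronger specific loss of the NR0B1 reporter.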

The strongest results of the screen are mostly left out here. Sequences are the guide (antisense) strand, without overhang.

Sequence,target gene,seed-corrected z-score
UAAUACUGAAGGACCCAGG,PEX26,-0.5796
UCCUCUUAAGGGUAAACAC,ZMYM1,0.3883
AGAUUGAUAACAUCAAACU,PRKAG1,-0.4647
ACCGUAGAGAGGAAAGUCA,SLC10A3,1.816
UGACUAAUAAAUGCGAUUC,APPL1,0.02219
UUGGGACUGACAAGCAUCG,NOTCH4,-0.1102
UAUCUUCCCAUCUUAAUUC,FOXD4L4,0.6204
UUAGGCAUGAUGGUCACGC,HIST1H3E,1.144
UCUGUGGAUAAGAUCUUGC,SARNP,0.9453
UUCCAGAUCAUACUUCUUC,RAB11FIP5,0.9695
UUCUUAACAAUCCCAAGAC,LOC440040,0.2931
UGGUUAAUGACAGUAGAUG,ITIH5,-0.114
UCUUUAAGAACUCAGCUCC,RPS26P35,1.625
AUACUGGUAAUUUCGAAGG,ZFYVE16,0.738
UCUUGUCGUAGUAGUAGCG,FEV,-0.467
AAAGGUGAUGUAGAGUUUG,GPR32,-0.008706
UGUUUAUCAUCACAUAUAC,LOC286238,0.2117
UUCAUAAUAACUGUUCCGG,COG8,1.375
UUACAGAUUAGGAAACUGA,QPRT,0.7119
AAUCCUAUCACUAGAAUAG,SORBS2,0.3811
UCAGAGGUAGCUGACAUCA,FAM212A,-0.08194
UUUAGUGCCUGCCCUAUUC,GARNL3,-0.2331
UAUCAAUCUCCGAACAGGG,BARHL2,0.4282
AAUGGUGUCAUCGAAGUUA,TXNDC5,0.4503
AAUCCACCAAUUUACCUGC,SLC16A7,-0.5303
UUAACUGUAGGAUCAGCUC,ASB7,0.3772
UUACGGGACACCAUUAAGC,PCCA,-0.06177
UCAGAGAUAGGUCCUGCAG,ACD,1.716
UGAAAUUACGUAACCCUGC,LMO7DN,2.337
AAAGGUCUCCAAAAAUUCC,FAM66C,1.306
UAUUUGAUCAUGCGUAAAC,AKIRIN2,0.7517
UGUAUGAAAGAGAUAACCC,CDC25A,-0.1498
AUCUGUUCCUCUUUAGUCA,PTH1R,-1.465
UCAUCUGUAGCAAAAAGCC,OSGEP,-0.4319
ACUGCUACCACAAACGGUC,ACOT9,0.3229
UGGAGAUACAAAGAGAGGC,ALG13,-1.014
UUCUUUACACUUUAAUGUG,IPCEF1,0.6592
UCCUGAAUAAGUGGAACUG,GBAS,2.705
AAAUCUACUUUGUACUUGC,MRPL39,0.5954
UAACUUUCUGCACCGCUGA,CFAP77,-0.006026
UAUUAGAUCCUUCUAGAGG,MMP19,0.3209
UACCGGUAAAGUAGACUCC,BPIFC,-0.167
UUCCGGACAAAUUUCUUCC,ZNF510,0.07203
UGCUAUAUUGCUUAGGUGG,VPS54,-0.3373
UUAACUUGAACUUUAUCAC,NANP,0.5207
UUCGUAUCAAGGAUUCUCC,MON2,0.3987
UCACUUCAAACCACGAGUC,ZNRF1,-0.5411
AAAGUGAGAAUUGUCAGCU,AQP8,1.691
AACUUAGUGACAGUCGUGG,GABRB1,-0.4541
AAACGGAUCAGAUCCAUGC,TAOK3,-0.5229
UUCUUUCAUACCACUGUCC,ERP27,1.109

Some entries from above, unchanged:

* UCUGUGGAUAAGAUCUUGC against SARNP | seed-corrected z-score 0.9453
* UUAACUUGAACUUUAUCAC against NANP | seed-corrected z-score 0.5207
* AUCUGUUCCUCUUUAGUCA against PTH1R | seed-corrected z-score -1.465
* UUAACUGUAGGAUCAGCUC against ASB7 | seed-corrected z-score 0.3772

Source: PubChem BioAssay AID1159506 (NCATS, 2015).